Results are given in words; binding and its absence hold for the method and conditions named.

The chains behind the UniProt entries cited, without tags or fusion partners. Where a name states a change or a piece, a line headed by the entry shows the natural chain unless it says otherwise. A line that says so, or that is headed by a name, gives the form on record, which may keep a tag or linker.
UniProt P25638: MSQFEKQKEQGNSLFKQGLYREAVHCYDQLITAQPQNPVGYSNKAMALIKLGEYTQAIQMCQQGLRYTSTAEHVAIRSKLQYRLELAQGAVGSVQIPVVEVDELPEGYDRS
UniProt P08238: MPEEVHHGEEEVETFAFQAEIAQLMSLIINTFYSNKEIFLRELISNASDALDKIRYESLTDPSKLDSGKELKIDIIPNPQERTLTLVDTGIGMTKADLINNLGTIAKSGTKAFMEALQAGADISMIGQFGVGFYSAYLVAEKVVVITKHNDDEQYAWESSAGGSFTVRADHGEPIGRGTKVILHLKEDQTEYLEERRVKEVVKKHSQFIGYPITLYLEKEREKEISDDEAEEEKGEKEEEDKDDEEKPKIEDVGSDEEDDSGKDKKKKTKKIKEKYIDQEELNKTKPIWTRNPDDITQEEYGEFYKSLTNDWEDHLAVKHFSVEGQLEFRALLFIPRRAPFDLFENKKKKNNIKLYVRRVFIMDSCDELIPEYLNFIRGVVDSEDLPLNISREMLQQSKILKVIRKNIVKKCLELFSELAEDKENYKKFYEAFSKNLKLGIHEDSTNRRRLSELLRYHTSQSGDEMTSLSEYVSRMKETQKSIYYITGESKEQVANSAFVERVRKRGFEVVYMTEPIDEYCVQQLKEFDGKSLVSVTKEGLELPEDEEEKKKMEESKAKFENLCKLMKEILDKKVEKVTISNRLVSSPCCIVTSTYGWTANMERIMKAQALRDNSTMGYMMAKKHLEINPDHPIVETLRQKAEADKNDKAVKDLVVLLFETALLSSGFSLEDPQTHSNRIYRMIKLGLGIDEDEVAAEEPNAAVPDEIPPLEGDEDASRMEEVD
UniProt P53691: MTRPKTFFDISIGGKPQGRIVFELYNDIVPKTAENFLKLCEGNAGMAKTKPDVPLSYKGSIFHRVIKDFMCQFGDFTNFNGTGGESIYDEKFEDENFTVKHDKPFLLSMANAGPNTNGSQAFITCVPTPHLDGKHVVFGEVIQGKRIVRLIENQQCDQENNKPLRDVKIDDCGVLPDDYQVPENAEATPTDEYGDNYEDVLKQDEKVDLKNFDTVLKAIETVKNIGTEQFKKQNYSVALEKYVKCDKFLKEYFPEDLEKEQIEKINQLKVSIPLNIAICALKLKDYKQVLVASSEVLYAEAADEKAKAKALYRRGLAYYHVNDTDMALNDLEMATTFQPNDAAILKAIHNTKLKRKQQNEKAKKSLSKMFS
Spagh/RPAP3 120-395 N172E-N321E double mutant (Q9H6T3, form named): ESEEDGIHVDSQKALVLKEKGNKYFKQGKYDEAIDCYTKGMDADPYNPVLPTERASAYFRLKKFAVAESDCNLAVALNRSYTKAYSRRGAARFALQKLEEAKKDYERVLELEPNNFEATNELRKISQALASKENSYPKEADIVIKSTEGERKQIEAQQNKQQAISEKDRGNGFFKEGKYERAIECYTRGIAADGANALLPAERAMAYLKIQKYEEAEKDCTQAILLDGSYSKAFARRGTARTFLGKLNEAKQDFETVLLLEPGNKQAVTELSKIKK

One assay has as its target FLAG-tagged Tah1 (yeast) (UniProt P25638). The assay can be described thus: co-IP; 70 μM Flag-Tah1p, Hsp90 600-709 and increasing concentrations of Cpr6 in 20 mM HEPES pH 7.5, 150 mM NaCl, 10% glycerol, 0.5% Igepal, 2 mM EDTA; Anti-Flag M2 magnetic beads; SDS-PAGE; both purified.
The target in another assay is His6-Hsp90β (human) (UniProt P08238). The assay can be described thus: pull-down; His6-Hsp90β as bait, Spagh/RPAP3 120-395 tandem TPR segment (wild type and mutants) as prey; both purified.

For “Cpr6 (monomeric TPR-domain Hsp90 cochaperone) (from UniProt P53691 1-371)”, the binding result with FLAG-tagged Tah1 (yeast) is on record as “no binding”.
On to “Spagh/RPAP3 120-395 N172E-N321E double mutant (from UniProt Q9H6T3 120-395) (domain or fragment)”, for which the binding result with His6-Hsp90β (human) is reported as “no binding”.

The record behind these values is publication PMC4058522, “Structural Basis for Phosphorylation-Dependent Recruitment of Tel2 to Hsp90 by Pih1” (Structure(London, England:1993), 2014).
